Results taken from paper doi:10.1101/2023.07.29.551094.

Legend:
[1] = molecular target: T1, His-TilA without its signal sequence (four-protein complex) (S. aureus) (UniProt Q2G0W9); experiment: pull-down + SEC
T1 sequence: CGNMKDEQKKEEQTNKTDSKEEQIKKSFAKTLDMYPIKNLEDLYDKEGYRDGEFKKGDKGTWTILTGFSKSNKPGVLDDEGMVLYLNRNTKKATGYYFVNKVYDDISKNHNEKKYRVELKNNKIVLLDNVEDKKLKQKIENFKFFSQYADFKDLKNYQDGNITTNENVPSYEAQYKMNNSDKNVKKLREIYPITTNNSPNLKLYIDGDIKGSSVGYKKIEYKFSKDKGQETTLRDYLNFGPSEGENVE

[2] = molecular target: TslA (SAOUHSC_00406) in the four-protein complex (S. aureus) (UniProt Q2G0W8); experiment: cryo-EM structure
[3] = molecular target: TslA (SAOUHSC_00406) in the four-protein complex (S. aureus) (UniProt Q2G0W8); experiment: pull-down + SEC
[4] = molecular target: TlaA1-Strep (four-protein complex) (S. aureus) (UniProt Q2G0W7); experiment: pull-down + SEC
[5] = molecular target: T1, His-TilA without its signal sequence (four-protein complex) (S. aureus); experiment: cryo-EM structure

TlaA1-Strep (four-protein complex) (from UniProt Q2G0W7)
binding [1]: binds

TlaA2-Myc (four-protein complex) (from UniProt Q2G0W6)
binding [2]: binds | binding [1]: binds | binding [3]: binds | binding [4]: binds

TslA (SAOUHSC_00406) in the four-protein complex (from UniProt Q2G0W8)
binding [5]: binds | binding [1]: binds | binding [4]: binds

No constants are given. Whether binding was seen depends on the method and setting. A result given as binding can be weak or reduced; the word gives no strength. For some assays here: Where a sequence is shown, tags or fusion partners need not be part of it. For some assays here: In cells and extracts the contact can be indirect.
